Ten molecules from doi:10.1101/414367 can be followed below.

Amino acid sequences for entries named in this document (tags omitted).
UniProt Q02455: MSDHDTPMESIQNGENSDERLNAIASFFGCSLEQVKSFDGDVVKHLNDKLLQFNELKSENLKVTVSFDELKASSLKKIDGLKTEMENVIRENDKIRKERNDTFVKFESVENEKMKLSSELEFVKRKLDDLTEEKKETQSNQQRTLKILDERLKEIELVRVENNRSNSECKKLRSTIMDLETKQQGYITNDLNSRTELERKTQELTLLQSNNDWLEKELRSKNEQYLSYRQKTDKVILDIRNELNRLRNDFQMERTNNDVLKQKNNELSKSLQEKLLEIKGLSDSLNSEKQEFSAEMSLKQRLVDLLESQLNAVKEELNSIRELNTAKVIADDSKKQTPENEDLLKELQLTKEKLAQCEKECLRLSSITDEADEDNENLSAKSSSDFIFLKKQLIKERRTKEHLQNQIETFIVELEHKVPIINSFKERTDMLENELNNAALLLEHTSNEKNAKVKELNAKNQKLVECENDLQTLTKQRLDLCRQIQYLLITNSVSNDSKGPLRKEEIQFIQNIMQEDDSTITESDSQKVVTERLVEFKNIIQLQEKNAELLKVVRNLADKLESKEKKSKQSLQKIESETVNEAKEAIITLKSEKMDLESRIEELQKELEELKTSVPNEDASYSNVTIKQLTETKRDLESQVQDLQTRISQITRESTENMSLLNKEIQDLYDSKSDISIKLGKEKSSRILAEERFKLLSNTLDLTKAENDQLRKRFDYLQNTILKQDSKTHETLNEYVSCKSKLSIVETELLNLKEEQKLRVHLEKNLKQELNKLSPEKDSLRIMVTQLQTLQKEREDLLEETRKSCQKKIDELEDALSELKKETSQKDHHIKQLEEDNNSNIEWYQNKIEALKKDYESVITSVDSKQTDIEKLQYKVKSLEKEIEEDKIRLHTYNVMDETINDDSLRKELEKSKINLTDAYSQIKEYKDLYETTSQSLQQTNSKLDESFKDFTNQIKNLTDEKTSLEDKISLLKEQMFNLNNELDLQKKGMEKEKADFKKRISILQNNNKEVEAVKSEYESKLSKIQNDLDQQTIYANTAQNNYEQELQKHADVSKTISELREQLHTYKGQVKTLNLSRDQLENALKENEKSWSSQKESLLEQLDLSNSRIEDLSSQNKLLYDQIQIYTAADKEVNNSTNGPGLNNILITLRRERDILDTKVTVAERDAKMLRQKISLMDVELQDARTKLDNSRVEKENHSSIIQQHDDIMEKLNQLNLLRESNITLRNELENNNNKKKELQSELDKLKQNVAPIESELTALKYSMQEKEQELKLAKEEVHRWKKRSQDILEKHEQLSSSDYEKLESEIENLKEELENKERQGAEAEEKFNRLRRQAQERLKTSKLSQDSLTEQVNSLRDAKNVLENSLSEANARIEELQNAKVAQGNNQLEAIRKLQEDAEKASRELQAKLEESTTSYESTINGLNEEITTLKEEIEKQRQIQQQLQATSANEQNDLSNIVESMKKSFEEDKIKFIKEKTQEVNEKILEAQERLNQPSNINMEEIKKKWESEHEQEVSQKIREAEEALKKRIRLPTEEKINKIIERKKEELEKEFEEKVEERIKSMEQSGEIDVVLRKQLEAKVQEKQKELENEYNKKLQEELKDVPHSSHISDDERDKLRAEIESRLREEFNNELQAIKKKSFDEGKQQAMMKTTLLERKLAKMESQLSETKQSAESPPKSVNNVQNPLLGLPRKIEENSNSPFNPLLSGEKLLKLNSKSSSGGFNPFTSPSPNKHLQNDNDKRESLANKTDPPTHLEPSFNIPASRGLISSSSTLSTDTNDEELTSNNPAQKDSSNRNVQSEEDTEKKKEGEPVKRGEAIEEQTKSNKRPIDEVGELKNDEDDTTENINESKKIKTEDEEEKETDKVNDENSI

The test deals with T1, Cex1-HA (S. cerevisiae) (UniProt Q12453).
T1 sequence: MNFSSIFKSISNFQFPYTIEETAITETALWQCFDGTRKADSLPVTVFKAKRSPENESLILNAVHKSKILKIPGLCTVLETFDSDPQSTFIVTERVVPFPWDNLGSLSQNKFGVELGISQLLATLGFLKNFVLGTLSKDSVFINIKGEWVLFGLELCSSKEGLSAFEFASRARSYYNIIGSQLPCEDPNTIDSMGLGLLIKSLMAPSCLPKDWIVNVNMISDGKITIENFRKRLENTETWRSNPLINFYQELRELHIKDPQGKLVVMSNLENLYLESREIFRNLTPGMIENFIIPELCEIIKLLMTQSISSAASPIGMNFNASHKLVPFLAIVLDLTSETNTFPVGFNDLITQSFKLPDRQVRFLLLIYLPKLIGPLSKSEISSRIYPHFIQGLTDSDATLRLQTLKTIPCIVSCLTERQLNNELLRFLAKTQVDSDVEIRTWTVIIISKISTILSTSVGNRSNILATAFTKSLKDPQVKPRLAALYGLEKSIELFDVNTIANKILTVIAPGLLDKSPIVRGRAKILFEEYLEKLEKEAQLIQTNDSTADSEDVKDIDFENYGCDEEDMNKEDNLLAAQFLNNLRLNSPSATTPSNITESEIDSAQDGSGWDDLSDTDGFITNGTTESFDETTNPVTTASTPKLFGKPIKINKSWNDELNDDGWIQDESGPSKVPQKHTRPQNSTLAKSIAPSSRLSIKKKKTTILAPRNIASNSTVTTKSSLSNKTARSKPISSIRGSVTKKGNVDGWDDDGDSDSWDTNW
As to the kind of experiment: affinity purification with mass spectrometry.

No constants are given. Whether binding was seen depends on the method and setting. Binding seen in cells or lysates may run through a third protein. Here binding means that the protein was enriched with, or labelled near, the bait; the list need not be complete. Where a sequence is shown, tags or fusion partners need not be part of it.

Turning to Epo1, the binding result is reported as “binds”.

With Mlp1 (from UniProt Q02455 1-1875), the binding result is on record as “binds”.

B1: Spc110 (protein, UniProt P32380 1-944)
chain: MDEASHLPNGSLKNMEFTPVGFIKSKRNTTQTQVVSPTKVPNANNGDENEGPVKKRQRRSIDDTIDSTRLFSEASQFDDSFPEIKANIPPSPRSGNVDKSRKRNLIDDLKKDVPMSQPLKEQEVREHQMKKERFDRALESKLLGKRHITYANSDISNKELYINEIKSLKHEIKELRKEKNDTLNNYDTLEEETDDLKNRLQALEKELDAKNKIVNSRKVDDHSGCIEEREQMERKLAELERKLKTVKDQVLELENNSDVQSLKLRSKEDELKNLMNELNELKSNAEEKDTQLEFKKNELRKRTNELNELKIKSDEMDLQLKQKQNESKRLKDELNELETKFSENGSQSSAKENELKMLKNKIAELEEEISTKNSQLIAKEGKLASLMAQLTQLESKLNQRDSQLGSREEELKKTNDKLQKDIRIAREETVSKDERIIDLQKKVKQLENDLFVIKKTHSESKTITDNELESKDKLIKILENDLKVAQEKYSKMEKELKEREFNYKISESKLEDEKTTLNEKISNLAAENSQLKNKIEDNSTATHHMKENYEKQLESLRKDIEEYKESAKDSEDKIEELKIRIAENSAKVSEKRSKDIKQKDEQISDLTQNLKLQEDEISSLKSIIDRYKKDFNQLKSEQSNIQHDLNLQILNLENKLIESEDELKSLRDSQKIEIENWKRKYNNLSLENDRLLTEKESASDKEREISILNRKLDEMDKEKWNLQESKEKYKRELQKVITANDRLRREKEELNENSNNIRIMEDKMTRIKKNYLSEITSLQEENRRLEERLILNERRKDNDSTMQLNDIISYYKLKYHSEVRHNNDLKVINDYLNKVLALGTRRLRLDTRKGEHSLNISLPDDDELDRDYYNSHVYTRYHDYEYPLRFNLNRRGPYFERRLSFKTVALLVLACVRMKRIAFYRRSDDNRLRILRDRIESSSGRISW
In the case of B1, the binding entry is “binds”.

B2: Tps1 (protein, UniProt Q00764 1-495)
chain: MTTDNAKAQLTSSSGGNIIVVSNRLPVTITKNSSTGQYEYAMSSGGLVTALEGLKKTYTFKWFGWPGLEIPDDEKDQVRKDLLEKFNAVPIFLSDEIADLHYNGFSNSILWPLFHYHPGEINFDENAWLAYNEANQTFTNEIAKTMNHNDLIWVHDYHLMLVPEMLRVKIHEKQLQNVKVGWFLHTPFPSSEIYRILPVRQEILKGVLSCDLVGFHTYDYARHFLSSVQRVLNVNTLPNGVEYQGRFVNVGAFPIGIDVDKFTDGLKKESVQKRIQQLKETFKGCKIIVGVDRLDYIKGVPQKLHAMEVFLNEHPEWRGKVVLVQVAVPSRGDVEEYQYLRSVVNELVGRINGQFGTVEFVPIHFMHKSIPFEELISLYAVSDVCLVSSTRDGMNLVSYEYIACQEEKKGSLILSEFTGAAQSLNGAIIVNPWNTDDLSDAINEALTLPDVKKEVNWEKLYKYISKYTSAFWGENFVHELYSTSSSSTSSSATKN
Consider B2, for which the binding entry was “binds”.

B3: Sec26 (protein, UniProt P41810 1-973)
chain: MTSLSSQPAYTLVFDPSPSMETYSSTDFQKALEKGSDEQKIDTMKSILVTMLEGNPMPELLMHIIRFVMPSKNKELKKLLYFYWEIVPKLAEDGKLRHEMILVCNAIQHDLQHPNEYIRGNTLRFLTKLREAELLEQMVPSVLACLEYRHAYVRKYAILAVFSIFKVSEHLLPDAKEIINSFIVAETDPICKRNAFIGLAELDRENALHYLENNIADIENLDPLLQAVFVQFIRQDANRTPALKAQYIELLMELLSTTTSDEVIFETALALTVLSANPNVLVPAVNKLIDLAVKVSDNNIKLIVLDRIQDINANNVGALEELTLDILRVLNAEDLDVRSKALDISMDLATSRNAEDVVQLLKKELQTTVNNPDQDKAMQYRQLLIKTIRTVAVNFVEMAASVVSLLLDFIGDLNSVAASGIIAFIKEVIEKYPQLRANILENMVQTLDKVRSAKAYRGALWIMGEYAEGESEIQHCWKHIRNSVGEVPILQSEIKKLTQNQEHTEENEVDATAKPTGPVILPDGTYATESAFDVKTSQKSVTDEERDSRPPIRRFVLSGDFYTAAILANTIIKLVLKFENVSKNKTVINALKAEALLILVSIVRVGQSSLVEKKIDEDSLERVMTSISILLDEVNPEEKKEEVKLLEVAFLDTTKSSFKRQIEIAKKNKHKRALKDSCKNIEPIDTPISFRQFAGVDSTNVQKDSIEEDLQLAMKGDAIHATSSSSISKLKKIVPLCGFSDPVYAEACITNNQFDVVLDVLLVNQTKETLKNLHVQFATLGDLKIIDTPQKTNVIPHGFHKFTVTVKVSSADTGVIFGNIIYDGAHGEDARYVILNDVHVDIMDYIKPATADDEHFRTMWNAFEWENKISVKSQLPTLHAYLRELVKGTNMGILTPSESLGEDDCRFLSCNLYAKSSFGEDALANLCIEKDSKTNDVIGYVRIRSKGQGLALSLGDRVALIAKKTNKLALTHV
B3: the binding result was “binds”.

B4: Bat2 (protein, UniProt P47176 1-376)
chain: MTLAPLDASKVKITTTQHASKPKPNSELVFGKSFTDHMLTAEWTAEKGWGTPEIKPYQNLSLDPSAVVFHYAFELFEGMKAYRTVDNKITMFRPDMNMKRMNKSAQRICLPTFDPEELITLIGKLIQQDKCLVPEGKGYSLYIRPTLIGTTAGLGVSTPDRALLYVICCPVGPYYKTGFKAVRLEATDYATRAWPGGCGDKKLGANYAPCVLPQLQAASRGYQQNLWLFGPNNNITEVGTMNAFFVFKDSKTGKKELVTAPLDGTILEGVTRDSILNLAKERLEPSEWTISERYFTIGEVTERSKNGELLEAFGSGTAAIVSPIKEIGWKGEQINIPLLPGEQTGPLAKEVAQWINGIQYGETEHGNWSRVVTDLN
With B4, the binding result was “binds”.

B5: Cnm67 (protein, UniProt P53865 1-581)
chain: MTDFDLMNFPFHERLDSPVSENGEIKDGEPIPQNWLNENHVGKSILPLFVNPEDVINCNFSNARDSYEENKSPSMDQMNYARNTSYQESPGLQERPKNEKDKSPIGTDVHKKDVPNFIHSTPRENSSKHFTRANEQASAQPTDEHTSPDISIEDCNGAKIFLQNSLSKEDFRMLENVILGYQKKVIELGRDNLRQEERANSLQKELEAATKSNDKTLDNKKKIEEQTVLIENLTKDLSLNKEMLEKANDTIQTKHTALLSLTDSLRKAELFEIPIGILFFDLYDSEENSSKLDHILQEKYPNIKGFLCASQQEELSRISQRFKNAKAEAEDLRNELENKKIEIQTMREKNNTLIGTNKTLSKQNKILCDKFDKLTIDEKEILKGCNEEIKIKLERLNERLGSWEKSKEKYETSLKDKEKMLADAEKKTNTLSKELDNLRSRFGNLEGNTSERITIKNILQSRPDISAEECNFLMVEQIDSANLTTLQNTVKEIVLAVGIPYPKLRRKIPLLAIKLKYENIMLSNFAQRLHRQVYSQEMNLKKFTDQAYYDFMSTRRMDSIDHHLERCLDHLYDHILEKMVK
B5: the binding entry is given as “binds”.

B6: Spc42 (protein, UniProt P36094 1-363)
chain: MNGSPTPKRYSSKSSRLYDDYYNIPYQYSNPTPMNRDYNDVGSRINADKLVPEEYKRNTEFINKAVQQNKELNFKLREKQNEIFELKKIAETLRSKLEKYVDITKKLEDQNLNLQIKISDLEKKLSDANSTFKEMRFPKVKDPMVDDDPVSENYDQINVPKHRAPDATGNPRTTNKVSNTSDQDSRLKAIERTLSVLTNYVMRSEDGNNDRMSPLPSPLNTILPINNRLNFQEPKRYNPTVKVNPSDDDIMMYESAELKRVEEEIEELKRKILVRKKHDLRKLSLNNQLQELQSMMDGDDNIKLDNVSKHNHATHRHSSQSSRDYSPSSDACLECSNDLYEKNRVKPENNMSETFATPTPNNR
On to B6, for which the binding result is “binds”.

B7: Sec21 (protein, UniProt P32074 1-935)
chain: MSAHTYKKFENSTSGDLPDKMTIYQDCMNTFNESPVNSKRCRLLISRLLRLLAQGETFPQNEATALFFSISKLFQHQNDPLRQAVYLAIKELSGISEDVLMATSSIMKDVQNGSDLIKPDAIRSLTYVLDESTAFSAERLLKSAVVSRHPSISSAALCTSYHLLPISEVTIRRFTNETQEAVLDLKQFPNQHGNSEYYPNSTYISQYHALGLLYQLKKTDKMALLKLVRHFSENNSMKNQLAKVELVKIVNDLIYRDPQLFSQFRPLLSDWLSNKFESVQLETAKLITSFATRNSRLVAPELYAAAISALQSLLTVPRVSSRFAALRILNRISMVSPEKIVVCNPELESLINDSNRNISTYAITTLLKTGTSKNISSLISTITNFIHDVSDDFKIIIIDAVRTLSLNFPQEWKSILNFLIDVLKNSEGGFKFKNSIVEALIDIVSFVPQSKELALENLCDFIEDCEFNEILVRILHLLGKEGPSAPNPSLYVRHIYNRVVLENSIIRSAAVVALSKFALTKNDPTLYESIISLLKRIANDKDDEVRDRATIALEFIDSARNKDDVIAQNLIESKYFYDIPSLESKLSSYISSNTDSFATAFDVNQVRKFTEDEMKAINLKRKQEQIFNQKSETTLDTTPEAESVPEKRADANSFAGPNLDDHQEDLLATKYADELLSIEQIKPFGQLVNSSRAISLTEPEAEFVVRGVKHLFKDNVVLQFNITNTLTDIALDNVSVVCTPEISDEAELEELFTLQVDRLLPSEEAACYVAFKKLDEIVMEGFLNNLTFTTKEINPDTNEPFDGDEGFQDEYEIDSIFLNAGDYVKSSFTGNFSATFDELPCEEVAVFNIQEDLSIQEVVDKIILNSSCLPVESTQFAPSDSNSHTLKLFGKSALTGSKVALQIKMIKSSKGLALKVHGKGEDSLLCSDLVNGLMQ
For the molecule B7, the binding result is “binds”.

B8: Mps2 (protein, UniProt P53159 1-387)
chain: MSNGAFDAIFEYAWGQIDKPISGDFIYGKDLPKLIEIIENIFQKAQKSGSYELRLPLFSEINKDLFRTFSNTKTFFKIHKEEFDDIFFNLVNHPLREILENAFIGVDSIPSDFIVSMNLNSPSKFLVENKNKNTEGAGISTPRKKLTESPIKLLSRNNIGKALEVQVEELKRELTAKQSLLQENERQVSELKIRLETYQEKYASIQQRFSDLQKARQVEDNQNSSRTSDPGSPLVTGIDQKAILEEFRRRLQRQTDTISFLKDQIRRERGLNCSNDKVSHSKRKHATTDGDGTFKNFISAVPSNIWVKATIRIIVCFALLAGVLPYIRKYVYAHDTPSQNSRLQLSWWENSGILSKIVWFFEDQTDLETEYRSNANVDDAYSRVFGI
On to B8, for which the binding entry was “binds”.
